Source: patent US20240407413A1, “Concentrates Compromising Stevia Blends and Uses” (The Coca-Cola Company, priority 2018, published 2024)

What was measured:
[1] = Sensory evaluation for diet cola carbonated beverage; details: 4° C.
[2] = Sensory evaluation for diet lemon lime carbonated beverage; details: 4° C.

Question: For `C=C1C[C@@]23CCC4[C@](C)(C(=O)OC5OC(CO)C(O)C(OC6OC(CO)C(O)C(O)C6O)C5OC5OC(CO)C(O)C(O)C5O)CCC[C@@]4(C)[C@@H]2CCC1(OC1OC(CO)C(O)C(OC2OC(CO)C(O)C(O)C2O)C1OC1OC(CO)C(O)C(O)C1O)C3` (stereo partly drawn) [Reb-M, 13-[(2-O-β-D-glucopyranosyl-3-O-β-D-glucopyranosyl-β-D-glucopyranosyl)oxy] ent kaur-16-en-19-oic acid-[(2-O-β-D-glucopyranosyl-3-O-β-D-glucopyranosyl-β-D-glucopyranosyl) ester]], which “Average Panelist Rating (1 = most preferred, 5 = least preferred)” value (from here on “Average Panelist Rating”) ([1]; 500 ppm in finished beverage) is on record?
Answer: 2.6

Question: And the “Average Panelist Rating” value ([1]; 512 ppm in finished beverage)?
Answer: 2.8

Question: What about the “Average Panelist Rating” value ([2]; 500 ppm in finished beverage) of the same compound?
Answer: 4.1

Question: What about the “Average Panelist Rating” value ([2]; 512 ppm in finished beverage) of the same compound?
Answer: 4.2
